These are yes or no findings as the source states them, for the method shown. In cells and extracts the contact can be indirect. Some binding calls cover weakened binding; strength is not graded here.
Assays:
[1] = biological target: HA-tagged ATL2 (Atlastin 2), wild type, stably expressed in HCT116 cells (human) (UniProt Q8NHH9); test: co-IP
[2] = biological target: HA-tagged ATL2 Arg244Gln (R244Q), dimerization-defective mutant, stably expressed in HCT116 cells (human) (UniProt Q8NHH9); test: co-IP

Sequences of proteins named here, by UniProt entry; tags and fusion partners are left off. A change or cut given only in a name is not applied to a line headed by its entry.
UniProt Q8NHH9, whole entry: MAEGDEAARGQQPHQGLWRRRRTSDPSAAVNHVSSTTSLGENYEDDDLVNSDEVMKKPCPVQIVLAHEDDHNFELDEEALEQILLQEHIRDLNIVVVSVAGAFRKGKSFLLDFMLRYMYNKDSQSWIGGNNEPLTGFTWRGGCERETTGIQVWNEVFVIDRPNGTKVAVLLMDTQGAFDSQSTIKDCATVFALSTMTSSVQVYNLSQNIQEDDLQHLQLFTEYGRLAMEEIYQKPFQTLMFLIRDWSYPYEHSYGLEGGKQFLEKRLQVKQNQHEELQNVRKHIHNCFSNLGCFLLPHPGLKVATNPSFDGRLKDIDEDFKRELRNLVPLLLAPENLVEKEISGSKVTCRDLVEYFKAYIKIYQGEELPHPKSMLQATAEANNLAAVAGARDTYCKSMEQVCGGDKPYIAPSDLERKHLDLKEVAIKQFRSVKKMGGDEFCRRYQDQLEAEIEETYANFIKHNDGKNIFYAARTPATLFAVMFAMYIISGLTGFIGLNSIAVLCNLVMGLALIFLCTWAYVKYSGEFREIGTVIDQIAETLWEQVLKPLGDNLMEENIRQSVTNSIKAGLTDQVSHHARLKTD

binding [1]: binds | binding [2]: no binding
B1: ATL3 (Atlastin 3) in HCT116 cells (protein, UniProt Q6DD88 1-541)
chain: MLSPQRVAAAASRGADDAMESSKPGPVQVVLVQKDQHSFELDEKALASILLQDHIRDLDVVVVSVAGAFRKGKSFILDFMLRYLYSQKESGHSNWLGDPEEPLTGFSWRGGSDPETTGIQIWSEVFTVEKPGGKKVAVVLMDTQGAFDSQSTVKDCATIFALSTMTSSVQIYNLSQNIQEDDLQQLQLFTEYGRLAMDEIFQKPFQTLMFLVRDWSFPYEYSYGLQGGMAFLDKRLQVKEHQHEEIQNVRNHIHSCFSDVTCFLLPHPGLQVATSPDFDGKLKDIAGEFKEQLQALIPYVLNPSKLMEKEINGSKVTCRGLLEYFKAYIKIYQGEDLPHPKSMLQATAEANNLAAAASAKDIYYNNMEEVCGGEKPYLSPDILEEKHCEFKQLALDHFKKTKKMGGKDFSFRYQQELEEEIKELYENFCKHNGSKNVFSTFRTPAVLFTGIVALYIASGLTGFIGLEVVAQLFNCMVGLLLIALLTWGYIRYSGQYRELGGAIDFGAAYVLEQASSHIGNSTQATVRDAVVGRPSMDKKAQ

Reference: paper doi:10.1101/274530
